Binding data for 1 molecule are collected here from paper PMC11336912.

By UniProt entry, the sequences of proteins in these tests, tags left out.
UniProt Q7TPH6: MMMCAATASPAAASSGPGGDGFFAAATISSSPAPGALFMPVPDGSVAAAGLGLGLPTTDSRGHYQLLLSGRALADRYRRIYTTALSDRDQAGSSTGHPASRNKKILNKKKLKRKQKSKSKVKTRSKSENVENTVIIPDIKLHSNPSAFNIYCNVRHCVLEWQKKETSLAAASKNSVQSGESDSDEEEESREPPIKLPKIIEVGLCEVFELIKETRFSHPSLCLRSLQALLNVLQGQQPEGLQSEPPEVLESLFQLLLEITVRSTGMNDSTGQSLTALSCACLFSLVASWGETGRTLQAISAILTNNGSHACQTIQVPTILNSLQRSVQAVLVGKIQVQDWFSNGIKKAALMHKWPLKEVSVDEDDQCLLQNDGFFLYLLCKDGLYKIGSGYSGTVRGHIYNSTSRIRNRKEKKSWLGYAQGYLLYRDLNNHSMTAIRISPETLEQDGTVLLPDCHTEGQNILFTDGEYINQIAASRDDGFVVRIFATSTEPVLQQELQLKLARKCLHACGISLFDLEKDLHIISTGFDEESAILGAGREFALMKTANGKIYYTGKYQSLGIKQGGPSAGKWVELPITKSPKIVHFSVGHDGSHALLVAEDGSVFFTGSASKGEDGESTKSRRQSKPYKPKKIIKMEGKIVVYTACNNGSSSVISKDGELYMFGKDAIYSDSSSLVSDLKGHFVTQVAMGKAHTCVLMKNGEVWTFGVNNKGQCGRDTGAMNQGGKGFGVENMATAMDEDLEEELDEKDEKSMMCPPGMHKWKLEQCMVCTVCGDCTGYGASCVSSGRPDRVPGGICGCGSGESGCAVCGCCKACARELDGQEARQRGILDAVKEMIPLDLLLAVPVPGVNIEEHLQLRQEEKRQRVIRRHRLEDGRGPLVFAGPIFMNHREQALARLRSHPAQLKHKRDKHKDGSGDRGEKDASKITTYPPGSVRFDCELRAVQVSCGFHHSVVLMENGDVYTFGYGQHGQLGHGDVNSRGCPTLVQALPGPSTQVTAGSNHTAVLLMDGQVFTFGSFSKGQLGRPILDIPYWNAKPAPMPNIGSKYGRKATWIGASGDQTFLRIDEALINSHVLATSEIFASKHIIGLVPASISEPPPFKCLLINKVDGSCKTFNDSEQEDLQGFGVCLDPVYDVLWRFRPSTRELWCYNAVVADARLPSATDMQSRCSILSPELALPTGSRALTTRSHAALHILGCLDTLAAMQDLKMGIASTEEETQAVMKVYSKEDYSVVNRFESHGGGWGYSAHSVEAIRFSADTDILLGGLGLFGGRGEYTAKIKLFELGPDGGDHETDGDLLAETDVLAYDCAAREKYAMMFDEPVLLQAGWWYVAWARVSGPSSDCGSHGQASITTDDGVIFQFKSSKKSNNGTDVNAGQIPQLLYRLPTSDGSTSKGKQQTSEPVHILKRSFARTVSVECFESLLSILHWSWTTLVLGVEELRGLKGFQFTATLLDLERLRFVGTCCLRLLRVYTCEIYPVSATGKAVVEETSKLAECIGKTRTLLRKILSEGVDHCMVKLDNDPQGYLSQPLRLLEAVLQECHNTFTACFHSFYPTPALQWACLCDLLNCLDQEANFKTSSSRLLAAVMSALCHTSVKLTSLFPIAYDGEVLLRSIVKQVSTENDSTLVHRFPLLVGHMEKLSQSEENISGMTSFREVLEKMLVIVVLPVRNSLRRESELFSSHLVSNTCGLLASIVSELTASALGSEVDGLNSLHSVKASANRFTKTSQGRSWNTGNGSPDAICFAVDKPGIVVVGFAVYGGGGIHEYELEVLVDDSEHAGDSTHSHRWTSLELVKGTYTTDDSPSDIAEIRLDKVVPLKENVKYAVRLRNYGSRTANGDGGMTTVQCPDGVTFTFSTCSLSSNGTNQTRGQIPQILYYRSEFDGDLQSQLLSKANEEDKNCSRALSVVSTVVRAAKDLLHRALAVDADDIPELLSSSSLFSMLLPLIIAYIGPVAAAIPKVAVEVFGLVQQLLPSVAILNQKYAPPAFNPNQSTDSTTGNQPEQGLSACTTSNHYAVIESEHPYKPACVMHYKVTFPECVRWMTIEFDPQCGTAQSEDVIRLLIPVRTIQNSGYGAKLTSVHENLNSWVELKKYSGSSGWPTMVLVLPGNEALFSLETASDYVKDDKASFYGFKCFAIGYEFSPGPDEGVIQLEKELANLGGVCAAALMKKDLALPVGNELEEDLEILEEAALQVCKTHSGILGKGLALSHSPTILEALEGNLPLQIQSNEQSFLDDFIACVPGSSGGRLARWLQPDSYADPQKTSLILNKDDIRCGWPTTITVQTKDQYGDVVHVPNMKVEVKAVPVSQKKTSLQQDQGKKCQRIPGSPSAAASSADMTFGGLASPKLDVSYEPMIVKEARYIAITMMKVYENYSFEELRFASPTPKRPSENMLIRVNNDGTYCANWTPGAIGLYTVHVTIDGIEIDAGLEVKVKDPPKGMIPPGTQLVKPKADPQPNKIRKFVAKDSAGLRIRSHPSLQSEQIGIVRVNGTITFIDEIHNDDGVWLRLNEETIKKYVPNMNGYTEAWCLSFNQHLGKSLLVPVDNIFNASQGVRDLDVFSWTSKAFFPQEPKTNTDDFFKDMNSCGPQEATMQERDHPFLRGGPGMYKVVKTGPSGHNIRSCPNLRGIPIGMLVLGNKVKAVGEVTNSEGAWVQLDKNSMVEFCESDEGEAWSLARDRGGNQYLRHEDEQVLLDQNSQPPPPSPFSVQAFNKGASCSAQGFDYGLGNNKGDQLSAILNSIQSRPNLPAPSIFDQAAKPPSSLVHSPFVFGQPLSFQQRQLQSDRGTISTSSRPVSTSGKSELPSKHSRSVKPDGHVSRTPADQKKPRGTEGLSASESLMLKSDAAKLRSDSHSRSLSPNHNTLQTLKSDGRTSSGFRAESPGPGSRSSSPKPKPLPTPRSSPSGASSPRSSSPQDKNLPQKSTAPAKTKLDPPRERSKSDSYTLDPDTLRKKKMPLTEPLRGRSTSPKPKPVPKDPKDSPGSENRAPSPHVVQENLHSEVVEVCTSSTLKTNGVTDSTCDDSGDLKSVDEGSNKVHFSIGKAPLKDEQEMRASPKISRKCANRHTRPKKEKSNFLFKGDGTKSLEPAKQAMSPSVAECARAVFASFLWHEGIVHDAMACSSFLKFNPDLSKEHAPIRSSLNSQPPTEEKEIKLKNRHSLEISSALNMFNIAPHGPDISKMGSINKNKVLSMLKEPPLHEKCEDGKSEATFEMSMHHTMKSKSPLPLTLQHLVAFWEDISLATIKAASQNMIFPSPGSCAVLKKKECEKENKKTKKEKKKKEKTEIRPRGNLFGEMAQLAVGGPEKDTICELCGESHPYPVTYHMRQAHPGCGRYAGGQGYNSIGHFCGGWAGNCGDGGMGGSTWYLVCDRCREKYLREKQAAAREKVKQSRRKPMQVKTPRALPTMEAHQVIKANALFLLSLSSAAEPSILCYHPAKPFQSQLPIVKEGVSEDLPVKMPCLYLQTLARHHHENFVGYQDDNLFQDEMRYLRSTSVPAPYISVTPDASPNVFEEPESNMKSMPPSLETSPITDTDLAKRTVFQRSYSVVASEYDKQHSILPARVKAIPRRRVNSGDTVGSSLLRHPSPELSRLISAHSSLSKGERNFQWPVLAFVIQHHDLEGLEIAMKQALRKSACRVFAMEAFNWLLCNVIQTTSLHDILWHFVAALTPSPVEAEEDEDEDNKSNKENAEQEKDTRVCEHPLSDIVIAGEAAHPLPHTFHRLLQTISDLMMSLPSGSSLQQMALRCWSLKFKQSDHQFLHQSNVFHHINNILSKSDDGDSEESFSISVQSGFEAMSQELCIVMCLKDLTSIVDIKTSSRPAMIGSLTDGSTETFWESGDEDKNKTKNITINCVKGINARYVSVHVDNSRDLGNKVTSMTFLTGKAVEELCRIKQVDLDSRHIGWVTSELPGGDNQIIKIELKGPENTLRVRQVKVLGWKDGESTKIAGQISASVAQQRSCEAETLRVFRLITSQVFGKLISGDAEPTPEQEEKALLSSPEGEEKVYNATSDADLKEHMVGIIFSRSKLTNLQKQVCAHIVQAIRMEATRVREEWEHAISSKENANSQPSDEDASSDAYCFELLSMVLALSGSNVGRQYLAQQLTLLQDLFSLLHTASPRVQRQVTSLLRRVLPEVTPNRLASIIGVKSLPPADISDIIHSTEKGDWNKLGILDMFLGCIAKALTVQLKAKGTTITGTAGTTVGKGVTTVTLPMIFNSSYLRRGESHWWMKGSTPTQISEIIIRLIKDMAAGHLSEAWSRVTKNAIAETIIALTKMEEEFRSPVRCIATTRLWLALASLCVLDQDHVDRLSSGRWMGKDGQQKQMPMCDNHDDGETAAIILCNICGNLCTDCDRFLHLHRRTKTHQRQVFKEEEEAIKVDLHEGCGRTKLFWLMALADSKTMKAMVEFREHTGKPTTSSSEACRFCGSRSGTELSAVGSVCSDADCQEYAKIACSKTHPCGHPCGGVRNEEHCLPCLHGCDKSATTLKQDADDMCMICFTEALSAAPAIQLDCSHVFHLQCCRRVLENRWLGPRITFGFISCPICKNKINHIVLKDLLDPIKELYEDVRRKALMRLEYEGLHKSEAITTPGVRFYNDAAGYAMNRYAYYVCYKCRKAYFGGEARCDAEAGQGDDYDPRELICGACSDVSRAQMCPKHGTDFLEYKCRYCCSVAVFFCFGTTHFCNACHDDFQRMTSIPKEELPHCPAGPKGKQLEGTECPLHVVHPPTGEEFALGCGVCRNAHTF

No constants are given. Whether binding was seen depends on the method and setting. In cells and extracts the contact can be indirect. These calls come from enrichment with a bait or labelling near it, and not all partners need be listed.

The target in the assay is MYCBP2 (endogenous, microglia) (mouse (endogenous in primary microglia)) (UniProt Q7TPH6). Description: affinity purification with mass spectrometry; IP-MS to identify proteins interacting with MYCBP2; in microglia according to the discussion.

B1: S100A9 (endogenous, microglia) (protein, UniProt P31725 1-113)
chain: MANKAPSQMERSITTIIDTFHQYSRKEGHPDTLSKKEFRQMVEAQLATFMKKEKRNEALINDIMEDLDTNQDNQLSFEECMMLMAKLIFACHEKLHENNPRGHGHSHGKGCGK
For B1, the binding result is “binds”.
